According to patent publication US20180066029A1:
No constants are given. Whether binding was seen depends on the method and setting. Some results given as binding are weak or reduced against the parent protein; the word gives no strength.

Biological target: H3K4me3-modified histone H3 peptide (CelluSpots peptide array) (UniProt P68431)
Test: CelluSpots histone peptide array

B1: single PHD domain of TAF3 (protein, UniProt Q5VWG9 857-924, looked up, not shown: a dimerising Fc or GST)
chain: IRDEWGNQIWICPGCNKPDDGSPMIGCDDCDDWYHWPCVGIMTAPPEEMQWFCPKCANKKKDKKHKKR
B1 was tested, and the binding was “binds”.
